Assay results from publication PMC10542350, “Structural basis of nucleosome deacetylation and DNA linker tightening by Rpd3S histone deacetylase complex” (Cell Research, 2023).

Columns and labels:
[1] = molecular target: NCP^187bp (Xenopus laevis); assay: cryo-EM structure; reconstituted Rpd3S–NCP^187bp–Hho1 complex; consensus map of 6.2 Å; both purified
[2] = molecular target: NCP^187bp (Xenopus laevis); assay: native gel or EMSA; 150 nM NCP^187bp in 7 μL with Rpd3S and Hho1 titration (0, 12.5, 37.5, 112.5 μM); 4.5% native PAGE, 0.5× TBE, 4 °C; both purified

B1: Hho1 globular domain (residues 41–117) (domain or fragment, UniProt P53551 41-117)
chain: EASSKSYRELIIEGLTALKERKGSSRPALKKFIKENYPIVGSASNFDLYFNNAIKKGVEAGDFEQPKGPAGAVKLAK
[1]
  binding: binds
[2]
  binding: binds

These are yes or no findings as the source states them, for the method shown. Binding can be weak; no strength is given.
